Data published in paper PMC5102573 (Clinical Pharmacology and Therapeutics, 2016).
Read-outs that look alike come from different tables or passages of the source.

Key:
[1] = for Cmax lower (decrease) in cocktail than drug alone: geometric mean
[2] = previous report; cited from earlier work

Compound: NS(=O)(=O)c1cc(C(=O)O)c(NCc2ccco2)cc1Cl [Furosemide, furosemide]
- Cmax lower (decrease) in cocktail than drug alone ([1]; cocktail T1 vs alone): 19%
- Cmax lower (decrease) in cocktail than drug alone ([1]; cocktail T1 vs alone, listed as furosemide): 19.1%
- Cmax lower (decrease) in cocktail than drug alone ([1]; cocktail T2 vs alone): 21.4%
- Cmax, times higher in cocktail T3 than alone ([1]; cocktail T3 (20 mg furosemide dose) vs furosemide alone (5 mg dose)): 3.1 times
- decrease in AUC following concomitant administration of metformin [2]: 12%
- decrease in Cmax following concomitant administration of metformin [2]: 31%
